This is an account of results in article PMC6404586.

Protein sequences, listed by entry. Tags and fused reporters are not part of them. Lines headed by an entry give the natural chain unless they say otherwise; changes in a name come on top. Residues count along the entry.
UniProt P20023: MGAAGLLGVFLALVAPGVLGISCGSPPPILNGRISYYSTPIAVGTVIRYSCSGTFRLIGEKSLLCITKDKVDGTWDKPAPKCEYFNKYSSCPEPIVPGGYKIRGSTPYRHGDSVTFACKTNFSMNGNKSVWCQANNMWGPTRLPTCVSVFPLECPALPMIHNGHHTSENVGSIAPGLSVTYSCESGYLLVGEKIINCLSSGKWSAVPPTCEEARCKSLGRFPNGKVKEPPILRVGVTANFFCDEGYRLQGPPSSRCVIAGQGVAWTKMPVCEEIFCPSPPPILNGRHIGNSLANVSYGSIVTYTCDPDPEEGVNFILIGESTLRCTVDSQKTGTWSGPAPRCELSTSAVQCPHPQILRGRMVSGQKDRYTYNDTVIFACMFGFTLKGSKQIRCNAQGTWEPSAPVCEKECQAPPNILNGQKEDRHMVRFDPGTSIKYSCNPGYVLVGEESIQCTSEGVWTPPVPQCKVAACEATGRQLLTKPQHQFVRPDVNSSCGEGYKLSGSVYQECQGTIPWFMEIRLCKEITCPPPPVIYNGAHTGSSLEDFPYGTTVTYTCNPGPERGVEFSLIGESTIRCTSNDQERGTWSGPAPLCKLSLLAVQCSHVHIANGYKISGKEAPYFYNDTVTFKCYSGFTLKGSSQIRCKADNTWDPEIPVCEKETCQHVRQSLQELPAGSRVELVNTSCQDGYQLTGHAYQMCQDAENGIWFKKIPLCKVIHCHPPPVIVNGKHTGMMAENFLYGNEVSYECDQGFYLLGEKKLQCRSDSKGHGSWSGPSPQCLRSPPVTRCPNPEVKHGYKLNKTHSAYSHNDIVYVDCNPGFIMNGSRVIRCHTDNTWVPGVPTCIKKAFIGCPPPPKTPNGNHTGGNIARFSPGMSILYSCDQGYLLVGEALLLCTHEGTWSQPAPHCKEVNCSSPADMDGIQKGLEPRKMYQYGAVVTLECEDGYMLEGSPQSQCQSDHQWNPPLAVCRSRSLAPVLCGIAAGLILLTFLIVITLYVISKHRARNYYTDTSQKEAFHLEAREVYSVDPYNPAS
CR2/CD21 on B cells (human (endogenous in Raji)): residues 21-1033 of P20023
UniProt P01024, residues 1002-1303: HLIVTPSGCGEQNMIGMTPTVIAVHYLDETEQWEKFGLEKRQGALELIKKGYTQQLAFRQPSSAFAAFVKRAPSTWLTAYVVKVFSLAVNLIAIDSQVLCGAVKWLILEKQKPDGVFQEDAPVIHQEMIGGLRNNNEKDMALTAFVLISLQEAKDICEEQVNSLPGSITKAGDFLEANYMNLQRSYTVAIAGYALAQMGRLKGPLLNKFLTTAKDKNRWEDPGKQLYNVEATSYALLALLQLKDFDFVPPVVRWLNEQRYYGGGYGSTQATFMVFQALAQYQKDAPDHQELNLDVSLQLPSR

Results are given in words; binding and its absence hold for the method and conditions named. Some results given as binding are weak or reduced against the parent protein; the word gives no strength.

For one experiment, the target named is soluble CR2/CD21 (UniProt P20023). Put plainly: ELISA; competitive: 100 ng of soluble CR2/CD21 coated; C3d (100 ng/well) preincubated with serial dilutions of CIP in PBS; anti-C3 goat pAb; both purified.
For another experiment, the target named is C3d (human) (UniProt P01024). Put plainly: ELISA; 250 ng of C3d coated; CIP or CD21 in buffer with increasing NaCl (0-2.5 M); anti-CIP or anti-CD21 serum; both purified. (An ELISA detects its analyte on a solid surface through an enzyme-linked reagent.)
Experiment [1] deals with CR2/CD21 on B cells (human (endogenous in Raji)) (UniProt P20023). Put plainly: flow cytometry on cells; bC3d–SA, preincubated or not with CIP at 1, 3, 6 and 9 μM, added to Raji cells, 15 min at 37°C; anti-C3d mAb and phycoerythrin-labeled secondary antibody; only the binder purified. Background: In flow cytometry, cells or beads pass a laser one at a time.

On to “C3d (from UniProt P01024 1002-1303) (domain or fragment)”, for which the binding result in the experiment with soluble CR2/CD21 is “binds”.

For the substance “soluble CR2/CD21 (from UniProt P20023 21-971) (receptor)”, the binding entry with C3d (human) is given as “binds”.

As for “biotinylated C3d preincubated with streptavidin (C3d–biotin–SA) (from UniProt P01024 1002-1303) (complex)”, in experiment [1], the binding result was “binds”.
